Reference: patent publication US20220282255
For some of these results: Whether high values mean tight binding is not given here for every scale.

The chains behind the UniProt entries cited, without tags or fusion partners. Residues count along the entry.
UniProt P01137, 279-390: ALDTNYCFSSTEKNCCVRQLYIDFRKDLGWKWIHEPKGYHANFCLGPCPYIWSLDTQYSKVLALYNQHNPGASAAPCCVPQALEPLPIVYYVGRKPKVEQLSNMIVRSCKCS

The sequences below were run against TGF-β1 (Homo sapiens) (UniProt P01137) (assay: SPR). Settings: 2'-F all pyrimidines (U,C); receptor-binding inhibition, 10 nM:30 nM; 1.9 at 10:10; purified recombinant protein; protein details: Recombinant Human TGF-β1, Peprotech; variant of SEQ ID NO: 35; counted as no binding.
Work on “GGGAGAACUUGGAGCUCCUGAAUAAGGGAGGGAGACUUGUGGAGGGCAAGAGUGCGACGUCAGUC [SEQ ID NO: 39]” yielded a binding signal of 5 % inhibition.

Same assay, conditions: 2'-F all pyrimidines (U,C); receptor-binding inhibition, 10 nM:30 nM; purified recombinant protein; protein details: Recombinant Human TGF-β1, Peprotech; variant of SEQ ID NO: 21; counted as no binding
With “GGGCGGGGAAACUUGUGGUGGGCUAA [SEQ ID NO: 30]” the binding signal was -5.84 % inhibition.

The sequences below were run against TGF-β1 (Homo sapiens) (UniProt P01137) (assay: activity in cells). Settings: 2'-F all pyrimidines (U,C); 80 pM:20 nM; binds by SPR, judged no cell inhibition; purified recombinant protein; protein details: Recombinant Human TGF-β1, Peprotech.
Sequence “GGGAGAACUUGGAGCUUGACGGCGCUACAUUAUGCUCCAACGGUACUUUAUAGUGCGACGUCAGUC [SEQ ID NO: 22]” has a functional effect of the aptamer of 16 % inhibition.
With “GGGAGAACUUGGAGCUGAUGUCUGGAGUCCCCAUAUAUCACGUACAGUGUAGUGCGACGUCAGUC [SEQ ID NO: 17]” the functional effect of the aptamer was 7 % inhibition.
With “GGGAUCCGCAUCUAGAGUACAUCGUGGCGGGAAAGCCGCCCCAUUCUCUCGGGUCCUAGAAACGUCUACUGAAGCUAUCA [SEQ ID NO: 5]” the functional effect of the aptamer was 11 % inhibition.
“GGGAAUGCACUAGUGUUCAACAUUUAGCAACACAAGUCGUCCCCCACGGCAAGCAGUCCUCAAUCCUGACAAGCUUGCACGUCGAGUCAG [SEQ ID NO: 27]” showed a functional effect of the aptamer of -9 % inhibition.
Work on “GGGAGAACUUGGAGCUGGUCCGGAAACUGGAUUCUCUCUAAAAGGGGUACCAGUGCGACGUCAGUC [SEQ ID NO: 20]” yielded a functional effect of the aptamer of 16 % inhibition.
Work on “GGGAGAACUUGGAGCUCCCCCUCGCACUUAAUGGGUUCUGUGGCUGGAGAAAGUGCGACGUCAGUC [SEQ ID NO: 18]” yielded a functional effect of the aptamer of 16 % inhibition.
Sequence “GGGAUCCGCAUCUAGAGUACCGCGUGAGCGGCGUCUUGCUAUGACGUAAAGAAUCGUUACAACGUCUACUGAAGCUAUCA [SEQ ID NO: 11]” has a functional effect of the aptamer of 32 % inhibition.
“GGGAAUGCACUAGUGUUCAAUAAACACUAAGUGAUCCUCCUGCAAGCUAUGAAGAACUUAACGGCUCGUAAAGCUUGCACGUCGAGUCAG [SEQ ID NO: 28]” was tested, and the functional effect of the aptamer was -11 % inhibition.
“GGGAUCCGCAUCUAGAGUACACUAGUCACAUUGCGUGUACAUUACUCUGCGCAAUCGAUAAACGUCUACUGAAGCUAUCA [SEQ ID NO: 13]” showed a functional effect of the aptamer of 19 % inhibition.

Same assay, conditions: 2'-F all pyrimidines (U,C); 80 pM:20 nM; judged no inhibition; purified recombinant protein; protein details: Recombinant Human TGF-β1, Peprotech; counted as no effect
With “GGGAUCCGCAUCUAGAGUACCUAGAGGUGACUUGGGACGCGAGUUAUAAGGGAAUAGUCCAACGUCUACUGAAGCUAUCA [SEQ ID NO: 12]” the functional effect of the aptamer was 14 % inhibition.
In the case of “GGGAUCCGCAUCUAGAGUACGAAUAGUAAGGGAAUGACUCUCGGACCAAUGUAUUGCUAUAACGUCUACUGAAGCUAUCA [SEQ ID NO: 7]”, the functional effect of the aptamer is reported as 21 % inhibition.
In the case of “GGGAUCCGCAUCUAGAGUACGAUGUGCUUGUGCUGAAAUUAGAUUUCGCCGACUUUCCCUAACGUCUACUGAAGCUAUCA [SEQ ID NO: 8]”, the functional effect of the aptamer is reported as 22 % inhibition.
In the case of “GGGAUCCGCAUCUAGAGUACGAUGCAUGUUUUUAUAAAGUAUUGUUAUGUAAUGCAUCAAAACGUCUACUGAAGCUAUCA [SEQ ID NO: 10]”, the functional effect of the aptamer is reported as 15 % inhibition.

Same assay, conditions: 2'-F all pyrimidines (U,C); 80 pM:20 nM; judged no inhibition; purified recombinant protein; protein details: Recombinant Human TGF-β1, Peprotech; variant of SEQ ID NO: 35; counted as no effect
“GGGAGAACUUGGAGCUCCUGAAUAAGGGAGGGAGACUUGUGGAGGGCAAGAGUGCGACGUCAGUC [SEQ ID NO: 39]” was tested, and the functional effect of the aptamer was 15 % inhibition.
